Assay results: PubChem BioAssay AID2685 (National Center for Advancing Translational Sciences (NCATS), 2010)
This is one part of the list. These are further read-outs of the screen, such as a control signal, another cell line or another target. No call is given for them. Compounds called inactive in the main read-out are mostly missing here. Words in brackets tell the shape of the fitted curve; partial curves, single points and poor fits give uncertain potencies.

Assay: qHTS Assay for Lipid Storage Modulators in Drosophila S3 Cells;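 as to cell number change: cells counted by Cell Tracker Red CMTPX staining in the red channel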
Details: BODIPY lipid droplet fluorescence, 18-24 h; for cell number change: measured here: cell count max response, cells fed with added oleic acid
Method in brief: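 Drosophila S3 cells loaded with oleic acid (400 uM, as added) and compounds at several concentrations; lipid droplets imaged by 488-nm laser-scanning cytometry, 500–530 nm intensity and object ratio to cell channel. Percent activity normalized to 20 uM Triacsin C.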

[1] = measured here: lipid fluorescence (Fed channel) AC50, cells fed with added oleic acid
[2] = measured here: cell number channel AC50, cells fed with added oleic acid

Compound	cell number change [%]	AC50 [1]	AC50 [2]
O=C(c1cc(-c2ccccn2)nc2ccc(Br)cc12)N1CCN(S(=O)(=O)c2ccccc2)CC1	43.3	16.4 µM [rising, partial curve]	–
Cc1[nH]c2ccccc2c1C(=O)C(=O)Nc1ccc2c(c1)OCO2	–	29.1 µM [falling, single point]	–
O=C(NCC1COc2ccccc2O1)c1cccc(S(=O)(=O)N2CCN(c3ccccc3)CC2)c1 (stereo unspecified)	–	–	6.51 µM [rising, single point]
CC(C)OC(=O)COc1cc(O)c2c(=O)cc(-c3ccccc3)oc2c1	33.2	–	10.3 µM [rising, single point]
CCOc1cc(Cl)c(NC(=O)c2ccco2)cc1OCC	7.43	0.651 µM [rising, full curve, poor fit]	–
Cc1cc(C)nc(N2CCCC(C(=O)Nc3ccc(F)cc3)C2)n1 (stereo unspecified)	13.4	–	–
Cc1c(Cl)cccc1NC(=S)NC(=O)CCN1C(=O)c2ccccc2C1=O	17.5	3.26 µM [rising, full curve, poor fit]	–
CC1CCN(S(=O)(=O)c2ccc(NC(=O)CN3CCCCCC3)cc2)CC1	27.6	0.631 µM [falling, full curve, poor fit]	0.0164 µM [rising, full curve, poor fit]
COc1ccccc1NC(=S)N(Cc1ccccc1)Cc1ccccn1	-13.8	13 µM [rising, partial curve, poor fit]	–
COc1ccc(NC(=O)C2=Cc3ccccc3OC2)cc1	28.2	–	0.259 µM [rising, full curve, poor fit]
CCC(NC(=O)c1ccccc1NC(=O)c1ccccc1)C(=O)NNC(=O)CSc1nc2ccccc2o1 (stereo unspecified)	20.9	6.51 µM [rising, partial curve, poor fit]	–
Cc1ccc(Cc2cnc(N)s2)o1	-4.64	2.06 µM [falling, single point]	0.146 µM [falling, full curve, poor fit]
O=C(CCc1nnc2n(Cc3ccccc3Cl)c(=O)c3ccccc3n12)NCCCN1CCOCC1	1.7	20.6 µM [rising, partial curve]	–
CCN1CCN(CCCNC(=O)CCC(=O)N2CCOc3ccc(Cl)cc32)CC1	-2.02	–	–
Cc1ccc(C)n1-c1ccc(C(=O)Nc2ccccc2)cc1	13.1	11.6 µM [rising, partial curve, poor fit]	–
CCN(c1cccc(C)c1)S(=O)(=O)c1c(C)[nH]c(=O)[nH]c1=O	-39.9	14.6 µM [falling, partial curve]	4.11 µM [falling, full curve]
O=C(Cc1ccccc1)NCC(=O)N1CCN(c2ccccc2)CC1	13.3	–	–
Cc1ccc(-c2nnc3ccc(SC(C)C(=O)O)nn23)cc1 (stereo unspecified)	–	0.651 µM [falling, single point]	0.206 µM [falling, full curve, poor fit]
O=C(C1CCCN(S(=O)(=O)c2ccccc2)C1)N1CCCCCC1 (stereo unspecified)	32.6	0.0231 µM [rising, full curve, poor fit]	10.3 µM [rising, partial curve, poor fit]
Cc1ccc(NC(=O)COC(=O)Cc2c[nH]c3ccccc23)cc1C	18.5	29.1 µM [rising, single point]	–

Compound	cell number change [%]	AC50 [1]	AC50 [2]
COc1cc(C(=O)N/N=C/c2ccc(OC(=O)c3ccccc3Cl)c(OC)c2)ccc1O	-31.7	13 µM [falling, partial curve]	7.31 µM [falling, partial curve]
CN(C)C(=O)c1nnsc1Sc1ccc(Cl)cc1	60.4	1.3 µM [falling, partial curve]	4.11 µM [falling, single point]
CCOc1cccc(-c2nnc3sc(-c4ccc(C)cc4)nn23)c1	6.59	14.6 µM [rising, single point]	–
O=C(c1ccc2c(c1)OCO2)N1CCN=C1SCc1ccccc1	2.71	4.61 µM [rising, partial curve, poor fit]	–
O=C(c1cc(COc2cccc(C(F)(F)F)c2)on1)N1C[C@H]2CC[C@H]1C2	-9.38	–	–
COc1cccc(NC(=O)c2nn(C)c3c2CS(=O)(=O)c2ccccc2-3)c1	-6.6	–	–
Cc1cc(C)c(C(=O)COC(=O)c2cc([N+](=O)[O-])ccc2N2CCOCC2)cc1C	–	0.411 µM [falling, partial curve, poor fit]	–
COc1cccc(N2CCN(Cc3nc4ccccc4c(=O)[nH]3)CC2)c1	-4.38	0.651 µM [falling, full curve, poor fit]	–
CCN(C(=O)COc1cccc2cccnc12)C1CCS(=O)(=O)C1 (stereo unspecified)	21.7	–	–
Cc1ccsc1CNC1CCCCC1	21.2	–	0.116 µM [rising, full curve, poor fit]
CCc1ccc(NC(=O)c2[nH]c(C)c(C(C)=O)c2C)cc1	11.7	–	–
O=C(NCCc1ccccc1)c1nccc2ccccc12	-17	–	–
O=S(=O)(c1ccccc1)N1CCN(c2nc(-c3cccnc3)nc3ccccc23)CC1	-8.02	0.00461 µM [falling, full curve, poor fit]	–
O=c1[nH]c(CSc2nnc3ccccn23)nc2ccccc12	-13.7	0.731 µM [falling, full curve]	0.731 µM [falling, full curve]
C/C(CCc1ccc2c(c1)OCO2)=N\NC(=O)c1ccc(C)cc1C	–	–	0.184 µM [falling, full curve, poor fit]
CCN1CCN(C(=O)CS(=O)(=O)Cc2nc(-c3ccccc3C)oc2C)CC1	25.2	29.1 µM [falling, single point]	–
O=C(NCc1n[nH]c(=S)n1-c1ccccc1)c1ccc(S(=O)(=O)N2CCOCC2)cc1	-12	–	–
Cc1ccc2c(c1)cc(CN(C(=O)N1CCOCC1)C1CCCC1)c1nnnn12	-10.2	3.66 µM [falling, full curve, poor fit]	–
Cc1cc(C)cc(C(=O)NCC(=O)N2CCN(C(c3ccccc3)c3ccccc3)CC2)c1	-1.32	–	–

Fetched by structure from the list above, 2 records:
Compound	cell number change [%]	AC50 [1]	AC50 [2]
COc1ccccc1NC(=S)N(Cc1ccccc1)Cc1ccccn1	-13.8	13 µM [rising, partial curve, poor fit]	–
Cc1[nH]c2ccccc2c1C(=O)C(=O)Nc1ccc2c(c1)OCO2	–	29.1 µM [falling, single point]	–
